The text below walks through data of PMC7244511, “Phosphoproteomics identifies dual-site phosphorylation in an extended basophilic motif regulating FILIP1-mediated degradation of filamin-C” (Communications Biology, 2020).

Chains of the proteins cited; added tags and fusions are not shown. Lines headed by an entry give the natural chain unless they say otherwise; changes in a name come on top.
UniProt Q14315: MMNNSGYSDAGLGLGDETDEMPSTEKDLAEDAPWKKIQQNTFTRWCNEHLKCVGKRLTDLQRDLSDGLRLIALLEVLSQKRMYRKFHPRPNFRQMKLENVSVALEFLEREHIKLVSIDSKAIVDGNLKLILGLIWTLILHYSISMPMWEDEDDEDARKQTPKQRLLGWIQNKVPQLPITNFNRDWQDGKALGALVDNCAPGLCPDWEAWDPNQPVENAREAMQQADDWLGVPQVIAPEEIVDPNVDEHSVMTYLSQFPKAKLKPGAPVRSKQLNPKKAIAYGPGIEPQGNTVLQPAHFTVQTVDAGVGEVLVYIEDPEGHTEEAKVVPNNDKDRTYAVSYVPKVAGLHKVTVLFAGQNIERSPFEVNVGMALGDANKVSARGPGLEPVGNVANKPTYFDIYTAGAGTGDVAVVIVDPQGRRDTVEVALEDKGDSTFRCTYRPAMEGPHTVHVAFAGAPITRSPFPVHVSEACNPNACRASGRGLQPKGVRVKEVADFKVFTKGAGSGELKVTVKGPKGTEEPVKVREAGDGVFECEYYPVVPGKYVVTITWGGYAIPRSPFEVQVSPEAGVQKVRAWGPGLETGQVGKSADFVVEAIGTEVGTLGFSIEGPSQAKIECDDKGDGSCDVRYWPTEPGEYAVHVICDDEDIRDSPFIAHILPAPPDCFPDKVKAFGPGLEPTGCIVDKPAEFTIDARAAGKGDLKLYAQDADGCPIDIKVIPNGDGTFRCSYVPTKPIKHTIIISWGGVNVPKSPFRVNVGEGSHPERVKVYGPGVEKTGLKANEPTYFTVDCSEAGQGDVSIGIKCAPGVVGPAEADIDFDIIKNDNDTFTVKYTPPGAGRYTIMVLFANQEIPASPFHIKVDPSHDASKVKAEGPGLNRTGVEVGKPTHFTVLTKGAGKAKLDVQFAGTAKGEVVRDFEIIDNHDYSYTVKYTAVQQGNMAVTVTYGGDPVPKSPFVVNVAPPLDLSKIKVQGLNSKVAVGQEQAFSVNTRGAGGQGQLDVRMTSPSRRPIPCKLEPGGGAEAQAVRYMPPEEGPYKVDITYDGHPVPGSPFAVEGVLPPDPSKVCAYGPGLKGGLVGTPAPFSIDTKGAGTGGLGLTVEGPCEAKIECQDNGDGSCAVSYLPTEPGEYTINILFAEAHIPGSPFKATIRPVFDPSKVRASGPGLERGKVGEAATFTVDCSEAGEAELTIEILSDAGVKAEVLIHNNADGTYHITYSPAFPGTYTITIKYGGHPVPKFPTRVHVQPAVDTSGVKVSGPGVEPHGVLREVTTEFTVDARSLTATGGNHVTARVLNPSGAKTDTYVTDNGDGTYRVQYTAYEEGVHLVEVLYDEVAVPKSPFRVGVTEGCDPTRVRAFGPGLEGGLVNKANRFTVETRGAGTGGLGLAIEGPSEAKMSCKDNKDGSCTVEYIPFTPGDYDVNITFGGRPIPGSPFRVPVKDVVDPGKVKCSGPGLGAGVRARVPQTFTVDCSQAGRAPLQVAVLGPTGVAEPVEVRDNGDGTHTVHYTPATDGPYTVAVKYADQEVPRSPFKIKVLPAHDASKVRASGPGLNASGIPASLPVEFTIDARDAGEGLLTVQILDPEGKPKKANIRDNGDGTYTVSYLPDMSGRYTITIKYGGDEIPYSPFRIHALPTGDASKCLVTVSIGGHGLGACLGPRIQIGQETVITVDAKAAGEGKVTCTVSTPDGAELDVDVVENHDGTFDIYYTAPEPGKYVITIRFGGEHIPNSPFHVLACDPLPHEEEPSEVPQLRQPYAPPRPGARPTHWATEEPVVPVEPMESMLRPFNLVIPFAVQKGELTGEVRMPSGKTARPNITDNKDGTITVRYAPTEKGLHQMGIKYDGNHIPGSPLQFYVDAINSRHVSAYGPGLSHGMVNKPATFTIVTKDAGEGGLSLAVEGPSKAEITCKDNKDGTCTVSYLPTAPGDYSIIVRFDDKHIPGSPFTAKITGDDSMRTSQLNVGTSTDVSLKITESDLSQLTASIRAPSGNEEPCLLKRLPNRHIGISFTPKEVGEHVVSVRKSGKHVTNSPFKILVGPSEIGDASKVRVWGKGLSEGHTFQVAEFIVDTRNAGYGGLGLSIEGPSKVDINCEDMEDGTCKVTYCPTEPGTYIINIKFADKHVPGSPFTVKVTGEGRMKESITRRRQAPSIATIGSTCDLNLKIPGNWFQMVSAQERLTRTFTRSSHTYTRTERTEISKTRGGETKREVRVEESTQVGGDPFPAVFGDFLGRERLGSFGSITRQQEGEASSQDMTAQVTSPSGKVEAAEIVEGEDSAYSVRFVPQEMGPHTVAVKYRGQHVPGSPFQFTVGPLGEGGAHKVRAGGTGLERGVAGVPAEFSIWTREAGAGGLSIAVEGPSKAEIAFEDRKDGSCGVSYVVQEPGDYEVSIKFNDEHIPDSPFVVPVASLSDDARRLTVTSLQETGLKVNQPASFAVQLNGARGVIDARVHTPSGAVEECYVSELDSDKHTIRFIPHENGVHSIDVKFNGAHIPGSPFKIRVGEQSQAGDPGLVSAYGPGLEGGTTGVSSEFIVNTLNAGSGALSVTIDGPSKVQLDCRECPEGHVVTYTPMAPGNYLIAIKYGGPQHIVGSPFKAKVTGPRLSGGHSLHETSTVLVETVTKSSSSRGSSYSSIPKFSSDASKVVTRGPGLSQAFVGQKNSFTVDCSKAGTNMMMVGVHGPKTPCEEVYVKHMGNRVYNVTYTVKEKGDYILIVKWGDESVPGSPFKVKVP
UniProt Q60598: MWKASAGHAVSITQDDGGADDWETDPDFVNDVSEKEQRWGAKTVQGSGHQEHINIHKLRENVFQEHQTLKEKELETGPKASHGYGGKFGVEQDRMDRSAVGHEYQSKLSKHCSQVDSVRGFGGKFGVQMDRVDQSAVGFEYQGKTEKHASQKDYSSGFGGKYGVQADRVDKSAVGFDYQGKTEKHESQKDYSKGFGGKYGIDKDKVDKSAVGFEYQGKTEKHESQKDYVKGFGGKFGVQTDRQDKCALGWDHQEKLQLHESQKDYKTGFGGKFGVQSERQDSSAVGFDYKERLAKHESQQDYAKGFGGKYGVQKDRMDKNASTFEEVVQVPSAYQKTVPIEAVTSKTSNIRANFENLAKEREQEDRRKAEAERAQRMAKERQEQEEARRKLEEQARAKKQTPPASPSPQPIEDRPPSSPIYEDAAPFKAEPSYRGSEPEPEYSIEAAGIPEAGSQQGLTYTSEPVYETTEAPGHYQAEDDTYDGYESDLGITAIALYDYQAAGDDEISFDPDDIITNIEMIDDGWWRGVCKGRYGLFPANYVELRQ
UniProt Q9JLV1: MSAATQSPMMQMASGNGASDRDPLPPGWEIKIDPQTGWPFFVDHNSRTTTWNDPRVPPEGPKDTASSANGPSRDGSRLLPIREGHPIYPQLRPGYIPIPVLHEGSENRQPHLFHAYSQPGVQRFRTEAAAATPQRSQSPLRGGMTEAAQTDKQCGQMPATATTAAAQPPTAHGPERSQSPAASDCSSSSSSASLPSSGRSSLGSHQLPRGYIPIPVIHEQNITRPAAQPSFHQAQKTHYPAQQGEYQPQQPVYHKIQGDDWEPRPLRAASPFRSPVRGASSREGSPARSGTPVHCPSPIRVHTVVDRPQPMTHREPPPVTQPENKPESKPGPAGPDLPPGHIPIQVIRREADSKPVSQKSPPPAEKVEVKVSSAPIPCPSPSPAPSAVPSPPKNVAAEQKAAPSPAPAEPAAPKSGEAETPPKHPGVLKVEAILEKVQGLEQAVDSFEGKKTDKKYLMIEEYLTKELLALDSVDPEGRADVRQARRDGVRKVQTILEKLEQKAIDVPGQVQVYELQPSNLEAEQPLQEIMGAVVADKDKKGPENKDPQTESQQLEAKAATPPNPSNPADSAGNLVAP
UniProt Q99JI1: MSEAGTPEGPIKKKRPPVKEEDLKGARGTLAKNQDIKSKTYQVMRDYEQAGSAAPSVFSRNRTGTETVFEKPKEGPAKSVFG
UniProt Q6P5H2: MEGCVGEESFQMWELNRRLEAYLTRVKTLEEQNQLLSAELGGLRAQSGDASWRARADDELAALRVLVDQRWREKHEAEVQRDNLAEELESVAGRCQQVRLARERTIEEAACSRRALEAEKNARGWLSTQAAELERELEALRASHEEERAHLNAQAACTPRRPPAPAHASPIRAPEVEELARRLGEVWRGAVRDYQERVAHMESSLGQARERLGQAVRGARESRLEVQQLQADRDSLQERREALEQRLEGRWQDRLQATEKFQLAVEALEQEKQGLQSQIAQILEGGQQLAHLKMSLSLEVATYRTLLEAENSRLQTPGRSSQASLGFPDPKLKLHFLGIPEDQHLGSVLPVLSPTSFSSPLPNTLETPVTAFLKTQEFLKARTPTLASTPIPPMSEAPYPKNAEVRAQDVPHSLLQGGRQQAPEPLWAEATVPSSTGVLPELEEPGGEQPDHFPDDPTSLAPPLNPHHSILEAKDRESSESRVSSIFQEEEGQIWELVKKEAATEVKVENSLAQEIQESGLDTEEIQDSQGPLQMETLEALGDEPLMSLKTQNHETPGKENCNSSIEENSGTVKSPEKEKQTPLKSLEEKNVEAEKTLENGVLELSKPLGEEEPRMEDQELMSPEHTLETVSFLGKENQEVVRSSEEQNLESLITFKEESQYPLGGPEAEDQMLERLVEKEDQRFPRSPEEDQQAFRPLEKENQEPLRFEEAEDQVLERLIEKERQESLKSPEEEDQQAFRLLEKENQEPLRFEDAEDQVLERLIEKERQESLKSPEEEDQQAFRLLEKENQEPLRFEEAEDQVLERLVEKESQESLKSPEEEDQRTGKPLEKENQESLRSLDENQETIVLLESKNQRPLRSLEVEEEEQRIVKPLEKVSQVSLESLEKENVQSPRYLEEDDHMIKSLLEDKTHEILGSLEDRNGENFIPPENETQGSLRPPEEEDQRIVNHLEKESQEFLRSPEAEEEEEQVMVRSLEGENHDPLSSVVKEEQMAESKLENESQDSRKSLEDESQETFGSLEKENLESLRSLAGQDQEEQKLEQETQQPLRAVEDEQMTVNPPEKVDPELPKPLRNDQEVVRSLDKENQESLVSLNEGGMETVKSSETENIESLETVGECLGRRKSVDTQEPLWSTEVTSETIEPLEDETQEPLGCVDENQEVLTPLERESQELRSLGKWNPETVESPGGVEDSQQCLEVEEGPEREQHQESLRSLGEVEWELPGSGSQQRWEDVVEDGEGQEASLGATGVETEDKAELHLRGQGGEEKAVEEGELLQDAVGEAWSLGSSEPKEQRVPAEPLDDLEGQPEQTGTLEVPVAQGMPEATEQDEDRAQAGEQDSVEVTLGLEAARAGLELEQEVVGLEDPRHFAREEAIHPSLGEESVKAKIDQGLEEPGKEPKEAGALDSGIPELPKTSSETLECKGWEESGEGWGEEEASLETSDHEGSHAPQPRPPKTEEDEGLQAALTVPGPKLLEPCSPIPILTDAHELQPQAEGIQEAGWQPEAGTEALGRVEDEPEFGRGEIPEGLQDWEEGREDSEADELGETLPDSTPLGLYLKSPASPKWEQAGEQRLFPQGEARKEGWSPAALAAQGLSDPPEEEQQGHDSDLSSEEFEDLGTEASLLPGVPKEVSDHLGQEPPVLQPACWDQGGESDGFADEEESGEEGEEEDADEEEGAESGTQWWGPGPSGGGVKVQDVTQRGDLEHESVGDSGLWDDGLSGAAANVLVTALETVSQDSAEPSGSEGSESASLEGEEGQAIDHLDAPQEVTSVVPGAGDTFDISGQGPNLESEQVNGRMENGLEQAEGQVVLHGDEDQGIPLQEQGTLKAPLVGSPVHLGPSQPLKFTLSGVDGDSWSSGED
UniProt Q9JKS4: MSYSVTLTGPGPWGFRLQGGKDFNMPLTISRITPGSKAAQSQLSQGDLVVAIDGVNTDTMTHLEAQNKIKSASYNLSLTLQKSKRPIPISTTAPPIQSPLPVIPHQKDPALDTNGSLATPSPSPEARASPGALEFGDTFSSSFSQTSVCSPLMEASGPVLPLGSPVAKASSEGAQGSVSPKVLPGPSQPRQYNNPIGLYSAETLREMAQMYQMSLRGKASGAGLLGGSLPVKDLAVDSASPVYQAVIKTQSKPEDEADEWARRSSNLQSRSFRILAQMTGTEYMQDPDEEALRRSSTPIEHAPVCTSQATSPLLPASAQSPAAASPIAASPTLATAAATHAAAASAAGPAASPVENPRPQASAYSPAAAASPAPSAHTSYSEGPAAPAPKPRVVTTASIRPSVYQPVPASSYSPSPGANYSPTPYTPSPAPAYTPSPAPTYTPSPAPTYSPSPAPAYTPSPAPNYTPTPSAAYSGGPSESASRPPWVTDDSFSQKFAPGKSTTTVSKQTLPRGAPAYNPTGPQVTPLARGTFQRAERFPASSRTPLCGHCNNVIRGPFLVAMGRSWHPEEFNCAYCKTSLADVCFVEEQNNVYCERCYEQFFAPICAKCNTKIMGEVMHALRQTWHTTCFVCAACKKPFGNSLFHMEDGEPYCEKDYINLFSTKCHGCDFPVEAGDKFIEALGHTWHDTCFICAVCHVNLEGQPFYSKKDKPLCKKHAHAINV

B1: endogenous filamin A-interacting protein 1 (FILIP1) (protein, UniProt Q9CS72 1-1214)
chain: MRSRNQGGESSSNGHVSCPKPSIISSDGGKGPSEDAKKNKANRKGEDDVMASGTVKRHLKPSGESEKKTKKPLELSKEDLIQLLSIMEGELQAREDVIHMLKTEKTKPEVLEAHYGSAEPEKVLRVLHRDAILAQEKSIGEDVYEKPISELDRLEEKQKETYRRMLEQLLLAEKCHRRTVYELENEKHKHTDYMNKSDDFTNLLEQERERLKKLLEQEKAYQARKEKENAKRLNKLRDELVKLKSFALMLVDERQMHIEQLGLQSQKVQDLTQKLREEEEKLKAITYKSKEDRQKLLKLEVDFEHKASRFSQEHEEMNAKLANQESHNRQLRLKLVGLSQRIEELEETNKSLQKAEEELQELRDKIAKGECGNSSLMAEVESLRKRVLEMEGKDEEITKTEAQCRELKKKLQEEEHHSKELRLEVEKLQKRMSELEKLEEAFSRSKSECTQLHLNLEKEKNLTKDLLNELEVVKSRVKELECSESRLEKVELSLKDDLTKLKSFTVMLVDERKNMMEKIKQEERKVDGLNKNFKVEQGKVMDVTEKLIEESKKLLKLKSEMEEKVYSLTKERDELMGKLRSEEERSCELSCSVDLLKKRLDGIEEVEREINRGRLCKGSEFTCPEDNKIRELTLEIERLKKRLQQLEVVEGDLMKTEDEYDQLEQKFRTEQDKANFLSQQLEEIKHQMAKNKAIEKGEAVSQEAELRHRFRMEEAKSRDLQAEVQALKEKIHELMNKEDQLSQLQVDYSVLQQRFMEEETKNKNMGREVLNLTKELELSKRYSRALRPSGNGRRMVDVPVASTGVQTEAVCGDAAEEETPAVFIRKSFQEENHIMSNLRQVGLKKPMERSSVLDRYPPAANELTMRKSWIPWMRKRENGPSAPQEKGPRPNQGTGHPGELVLAPKQGQPLHIRVTPDHENSTATLEITSPTSEEFFSSTTVIPTLGNQKPRITIIPSPNVMSQKPKSADPTLGPERAMSPVTITTISREKSPEGGRGAFADRPASPIQIMTVSTSAAPPEIAVSPDSQEVPMGRTILKVTPEKQTVPTPMRKYNANANIITTEDNKIHIHLGSQFKRSPGPAAAEGVSPVITVRPVNVTAEKEVSTGTVLRSPRNHLSSRPGANKVTSTITITPVTTSSTRGTQSVSGQDGSSQRPTPTRIPMSKGMKAGKPVVAAPGAGNLTKFQPRAETQSMKIELKKSAASSTASLGGGKG
B2: Pdlim3 (protein, UniProt O70209 1-316)
chain: MPQNVVLPGPAPWGFRLSGGIDFNQPLVITRITPGSKAAAANLCPGDVILAIDGFGTESMTHADAQDRIKAASYQLCLKIDRAETRLWSPQVSEDGKAHPFKINLEAEPQEFKPIGTAHNRRAQPFVAAANIDDKRQVVSASYNSPIGLYSTSNIQDALHGQLRGLIPGSLQNEPTASVPPQSDVYRMLHDNRDDPAAPRQSGSFRVLQDLVNDGPDDRPAGTRSVRAPVTKVHGGAGSAQRMPLCDKCGSGIVGAVVKARDKYRHPECFVCADCNLNLKQKGYFFVEGELYCETHARARTRPPEGYDTVTLYPKA
B3: Unc45b (protein, UniProt Q8CGY6 1-931)
chain: MAEAEAAQLKEEGNRHFQLQDYKAATKSYSQALKLTKDKALLATLYRNRAACGLKMESYAQAASDASRAIDINSADIKALYRRCQALEHLGKLDQAFKDVQRCATLEPRNQNFQETLRRLNTSIQEQLRVQFSTDSRVQTMFEILLNENSEADKREKAANNLIVLGREEAGAERIFQSNGVALLLQLMNTQRPELLLAAVRTLSGMCSGHRARATAILHAVRIDRICSLMALENEEMSLAVCNLLQAIIDSLSGEDKREHRGKEEALVLDTKKDLKQITSHLLDMLVSKKVSGQGRDQALNLLNKNVPRKDLSIHDNSRTIYVVDNGLRKILKVVGQVPDLPSCLPLTDNTRMLASILINKLYDDLRCDPERDHFRKICEEYITSKFDPQDMDKNVNAIQTVSGILQGPFDLGNQLLGMKGVMEMMVALCGSEREADQLVAVEALIHASTKLSRATFIITNGVTLLKQIYKTTKNEKIKIRTLVGLCKLGSAGGSDYGLRQFAEGSTEKLAKQCRKWLCNTAIDTRTRRWAVEGLAYLTLDADVKDDFVQDIPALQAMFELAKARTSDKTILYSVANTLVNCTNSYDVKEVVPELVQLAKFSKQHVPEEHPKDKKDFVDLRVKRLLKAGVISALACMVKADSAILTDQTKELLARVFLALCDNPKDRGTIVAQGGGKALIPLALEGTDVGKVKAAHGLAKIAAVSNPDIAFPGERVYEVVRPLVSLLDTQRDGLQNYEALLGLTNLSGRSDKLRQKIFKEKALPDIENYMFENHDQLRQAATECMCNMVLNKEVQERFLADGNDRLKLVVLLCGEDDHKLQNAAAGALAMLTAAHKKLCLKMTEVTTQWLEILQRLCLHDQLSVQHRGLVIAHNLLSADAELARKLVESELLEILTVVGKQEPDEKRAAVVQTARECLIKCMDYGFIKPVS
B4: Sorbs1 (protein, UniProt Q62417 1-1290)
chain: MSSECDVGSSKAVVNGLASGNHGPDKDMDPTKICTGKGTVTLRASSSYRGTPSSSPVSPQESPKHESKSGLEPEDPSADEWKLSSSADTNGNAQPSPLAAKGYRSVHPSLSADKPQGSPLLNEVSSSHIETDSQDFPPTSRPSSAYPSTTIVNPTIVLLQHNRDPASERRAGEQDPVPTPAELTSPGRASERRAKDASRRVVRSAQDLSDVSTDEVGIPLRNTERSKDWYKTMFKQIHKLNRDDDSDVHSPRYSFSDDTKSPLSVPRSKSEMNYIEGEKVVKRSATLPLPARSSSLKSSPERNDWEPLDKKVDTRKYRAEPKSIYEYQPGKSSVLTNEKMSRDISPEEIDLKNEPWYKFFSELEFGRPTNLEKDLSFCQAELEADLEKVETVNKSPSANSPQSSAVSPTPDITSEPPGYIYSSNFHAVKRESDGTPGGLASLENERQIYKSVLEGGDIPLQGLSGLKRPSSSASTKVDRKGGNAHMISSSSVHSRTFHTSNALGPGCKHKKPLSAAKACISEILPSKFKPRLSAPSALLQEQKSVLLPSEKAQSCENLCVSLNDSKRGLPLRVGGSIENLLMRSRRDYDSKSSSTMSLQEYGTSSRRPCPLSRKAGLHFSMFYRDMHQINRAGLSLGSISSSSVRDLASHFERSSLTLARGELGASQEGSEHIPKHTVSSRITAFEQLIQRSRSMPSLDFSGRLSKSPTPVLSRSGLTSARSAESLLESTKLRPREMDGMDSGGVYASPTCSNMADHALSFRSLVPSEPLSICSDELDHCSNVSNDSREGSGGSVHGDFPKHRLNKCKGTCPASYTRFTTIRKHEQQSSRQSDWRSDSRGDKNSLLRNIHLMSPLPFRLKKPLQQHPRQPPPSDSSESPAGQKADLPCHDPQDQPHSAGKPQVPTRLSSRHTMARLSHNSEPPLDRPAGLEDCTRAINNGNPVPYSDHGLDRNNNPQSELAAAHGDSESPRHFIPADYLESTEEFIRRRHDDKEKLLADQRRLKREQEEADIAARRHTGVIPTHHQFITNERFGDLLNIDDTAKRKSGLEMRPARAKFDFKAQTLKELPLQKGDVVYIYRQIDQNWYEGEHHGRVGIFPRTYIELLPPAEKAQPRKLAPVQVLEYGEAIAKFNFNGDTQVEMSFRKGERITLLRQVDENWYEGRIPGTSRQGIFPITYVDVLKRPLVKTPVDYIDLPYSSSPSRSATVSPQQPQAQQRRVTPDRSQPSLDLCSYQALYSYVPQNDDELELRDGDIVDVMEKCDDGWFVGTSRRTRQFGTFPGNYVKPLYL
B5: Cnn3 (protein, UniProt Q9DAW9 1-330)
chain: MTHFNKGPSYGLSAEVKNKIASKYDQQAEEDLRNWIEEVTGLGIGTNFQLGLKDGIILCELINKLQPGSVKKVNESSLNWPQLENIGNFIKAIQAYGMKPHDIFEANDLFENGNMTQVQTTLVALAGLAKTKGFHTTIDIGVKYAEKQTRRFDEGKLKAGQSVIGLQMGTNKCASQAGMTAYGTRRHLYDPKMQTDKPFDQTTISLQMGTNKGASQAGMLAPGTRRDIYDQKLTLQPVDNSTISLQMGTNKVASQKGMSVYGLGRQVYDPKYCAAPTEPVIHNGSQGTGTNGSEISDSDYQAEYPDEYHGEYPDDYPREYQYGDDQGIDY
B6: Rtn4 (protein, UniProt Q99P72 1-1162)
chain: MEDIDQSSLVSSSADSPPRPPPAFKYQFVTEPEDEEDEEDEEEEEDDEDLEELEVLERKPAAGLSAAPVPPAAAPLLDFSSDSVPPAPRGPLPAAPPTAPERQPSWERSPAASAPSLPPAAAVLPSKLPEDDEPPARPPAPAGASPLAEPAAPPSTPAAPKRRGSGSVDETLFALPAASEPVIPSSAEKIMDLKEQPGNTVSSGQEDFPSVLFETAASLPSLSPLSTVSFKEHGYLGNLSAVASTEGTIEETLNEASRELPERATNPFVNRESAEFSVLEYSEMGSSFNGSPKGESAMLVENTKEEVIVRSKDKEDLVCSAALHNPQESPATLTKVVKEDGVMSPEKTMDIFNEMKMSVVAPVREEYADFKPFEQAWEVKDTYEGSRDVLAARANMESKVDKKCFEDSLEQKGHGKDSESRNENASFPRTPELVKDGSRAYITCDSFSSATESTAANIFPVLEDHTSENKTDEKKIEERKAQIITEKTSPKTSNPFLVAIHDSEADYVTTDNLSKVTEAVVATMPEGLTPDLVQEACESELNEATGTKIAYETKVDLVQTSEAIQESIYPTAQLCPSFEEAEATPSPVLPDIVMEAPLNSLLPSTGASVAQPSASPLEVPSPVSYDGIKLEPENPPPYEEAMSVALKTSDSKEEIKEPESFNAAAQEAEAPYISIACDLIKETKLSTEPSPEFSNYSEIAKFEKSVPDHCELVDDSSPESEPVDLFSDDSIPEVPQTQEEAVMLMKESLTEVSETVTQHKHKERLSASPQEVGKPYLESFQPNLHITKDAASNEIPTLTKKETISLQMEEFNTAIYSNDDLLSSKEDKMKESETFSDSSPIEIIDEFPTFVSAKDDSPKEYTDLEVSNKSEIANVQSGANSLPCSELPCDLSFKNTYPKDEAHVSDEFSKSRSSVSKVPLLLPNVSALESQIEMGNIVKPKVLTKEAEEKLPSDTEKEDRSLTAVLSAELNKTSVVDLLYWRDIKKTGVVFGASLFLLLSLTVFSIVSVTAYIALALLSVTISFRIYKGVIQAIQKSDEGHPFRAYLESEVAISEELVQKYSNSALGHVNSTIKELRRLFLVDDLVDSLKFAVLMWVFTYVGALFNGLTLLILALISLFSIPVIYERHQAQIDHYLGLANKSVKDAMAKIQAKIPGLKRKAE

No constants are given. Whether binding was seen depends on the method and setting. In cells and extracts the contact can be indirect. Here binding means that the protein was enriched with, or labelled near, the bait; the list need not be complete.

This assay addresses BirA*hFLNc d18–21 (human) (UniProt Q14315). The experiment in a line: proximity labelling; BioID with SILAC in contracting C2 myotubes expressing BirA* or BirA*hFLNc d18–21; 50 μM biotin for 24 h; biotinylated proteins enriched on streptavidin Dynabeads, LC-MS; controls BirA* + biotin and bait without biotin.
In the case of Svil (from UniProt Q8K4L3 1-2170), the binding result is “binds”.
With Nrap (from UniProt Q80XB4 1-1728) the entry was “binds”.
Take Neb (from UniProt E9Q1W3 1-7152): the binding result is recorded as “binds”.
Turning to Dst (from UniProt Q91ZU6 1-7393), the binding result is “binds”.
Regarding “endogenous mouse filamin-C (mFLNc) (from UniProt Q8VHX6 1-2726)”, the binding result is recorded as “binds”.
With Cttn (from UniProt Q60598 1-546) the entry was “binds”; with “Bcl-2-associated athanogene 3 (Bag3) (from UniProt Q9JLV1 1-577)”, “binds”.
For the molecule Mustn1 (from UniProt Q99JI1 1-82), the binding result is “binds”.
With Macf1 (from UniProt Q9QXZ0 1-7354) the entry was “binds”.
For “Xin actin-binding repeat-containing protein 1 (Xirp1) (from UniProt O70373 1-1813)”, the binding result was “binds”.
For Nes (from UniProt Q6P5H2 1-1864), the binding entry is given as “binds”.
With “LIM domain binding 3 (Ldb3/ZASP/cypher) (from UniProt Q9JKS4 1-723)” the entry was “binds”; with Ccdc141 (from UniProt E9Q8Q6 1-1531), “binds”.
With B1 the entry was “binds”; with B2, “binds”; with B3, “binds”.
Take B4: the binding result is “binds”.
As to B5, the binding entry is listed as “binds”.
With B6 the entry was “binds”.
